# The other results are listed elsewhere or left out. Most of these values are background signal.
# Legend:
# Assay in all cases: fluorescence intensity of antibody binding to polysaccharide-coupled beads; higher = stronger binding
# [1] = target: pneumococcal polysaccharide Pn25A
# [2] = target: pneumococcal polysaccharide Pn25F
# [3] = target: pneumococcal polysaccharide Pn27
# [4] = target: pneumococcal polysaccharide Pn28A
# [5] = target: pneumococcal polysaccharide Pn28F
# [6] = target: pneumococcal polysaccharide Pn29
# [7] = target: pneumococcal polysaccharide Pn3
# [8] = target: pneumococcal polysaccharide Pn31
# [9] = target: pneumococcal polysaccharide Pn32A
# [10] = target: pneumococcal polysaccharide Pn32F
# [11] = target: pneumococcal polysaccharide Pn33A
# [12] = target: pneumococcal polysaccharide Pn33B
# [13] = antibody concentration 0.1 ng/mL
# [14] = antibody concentration 0.534724 ng/mL
# [15] = antibody concentration 2.8593 ng/mL
# [16] = antibody concentration 15.2894 ng/mL
# [17] = antibody concentration 81.7561 ng/mL
# [18] = antibody concentration 437.17 ng/mL
# [19] = antibody concentration 2337.65 ng/mL
# [20] = antibody concentration 12500 ng/mL
binder,measurement,setting,value
3S41.2 (protein) chain 1: EVQLVESGGGLVQPGGSLRLSCATSGFTFRNYWMYWFRQAPGKGLDWVSSISDSSSNTFYSDSVKGRFTISRDNAKNTLYLQMNSLRAEDTAVYYCARRPIAAATGVYWYFDLWGPGTPITVSS chain 2: QAALTQPPSMSGSPGQSVTISCTGTSSDIGGYNRVSWYQQYPGKAPKLMIYEVSKRPSGVSDRFSGSKSGNTAALTISGLQAADEADYYCSSYAGSYTFVLFGGGTRLTVL,fluorescence intensity,[1]; [13],23.2 MFI
same,fluorescence intensity,[1]; [14],23.2 MFI
same,fluorescence intensity,[1]; [15],24 MFI
same,fluorescence intensity,[1]; [16],25 MFI
same,fluorescence intensity,[1]; [17],25 MFI
same,fluorescence intensity,[1]; [18],27 MFI
same,fluorescence intensity,[1]; [19],31 MFI
same,fluorescence intensity,[1]; [20],39.8 MFI
same,fluorescence intensity,[2]; [13],30.5 MFI
same,fluorescence intensity,[2]; [14],32.5 MFI
same,fluorescence intensity,[2]; [15],31 MFI
same,fluorescence intensity,[2]; [16],31.5 MFI
same,fluorescence intensity,[2]; [17],30.5 MFI
same,fluorescence intensity,[2]; [18],32.5 MFI
same,fluorescence intensity,[2]; [19],35.2 MFI
same,fluorescence intensity,[2]; [20],55.8 MFI
same,fluorescence intensity,[3]; [13],17.5 MFI
same,fluorescence intensity,[3]; [14],17.5 MFI
same,fluorescence intensity,[3]; [15],18 MFI
same,fluorescence intensity,[3]; [16],16 MFI
same,fluorescence intensity,[3]; [17],18.5 MFI
same,fluorescence intensity,[3]; [18],21 MFI
same,fluorescence intensity,[3]; [19],64.5 MFI
same,fluorescence intensity,[3]; [20],366 MFI
same,fluorescence intensity,[4]; [13],27.5 MFI
same,fluorescence intensity,[4]; [14],26.5 MFI
same,fluorescence intensity,[4]; [15],26 MFI
same,fluorescence intensity,[4]; [16],26.2 MFI
same,fluorescence intensity,[4]; [17],28 MFI
same,fluorescence intensity,[4]; [18],29 MFI
same,fluorescence intensity,[4]; [19],31.2 MFI
same,fluorescence intensity,[4]; [20],43 MFI
same,fluorescence intensity,[5]; [13],30.2 MFI
same,fluorescence intensity,[5]; [14],30.5 MFI
same,fluorescence intensity,[5]; [15],30 MFI
same,fluorescence intensity,[5]; [16],28.2 MFI
same,fluorescence intensity,[5]; [17],30.5 MFI
same,fluorescence intensity,[5]; [18],31.5 MFI
same,fluorescence intensity,[5]; [19],45.2 MFI
same,fluorescence intensity,[5]; [20],139 MFI
same,fluorescence intensity,[6]; [13],15.5 MFI
same,fluorescence intensity,[6]; [14],15.5 MFI
same,fluorescence intensity,[6]; [15],18.5 MFI
same,fluorescence intensity,[6]; [16],15.5 MFI
same,fluorescence intensity,[6]; [17],17 MFI
same,fluorescence intensity,[6]; [18],19 MFI
same,fluorescence intensity,[6]; [19],41 MFI
same,fluorescence intensity,[6]; [20],222 MFI
same,fluorescence intensity,[7]; [13],14.5 MFI
same,fluorescence intensity,[7]; [14],15.5 MFI
same,fluorescence intensity,[7]; [15],28.5 MFI
same,fluorescence intensity,[7]; [16],84 MFI
same,fluorescence intensity,[7]; [17],462 MFI
same,fluorescence intensity,[7]; [18],1600 MFI
same,fluorescence intensity,[7]; [19],5400 MFI
same,fluorescence intensity,[7]; [20],9630 MFI
same,fluorescence intensity,[8]; [13],14.5 MFI
same,fluorescence intensity,[8]; [14],14 MFI
same,fluorescence intensity,[8]; [15],14 MFI
same,fluorescence intensity,[8]; [16],15 MFI
same,fluorescence intensity,[8]; [17],15 MFI
same,fluorescence intensity,[8]; [18],16.5 MFI
same,fluorescence intensity,[8]; [19],42.5 MFI
same,fluorescence intensity,[8]; [20],253 MFI
same,fluorescence intensity,[9]; [13],17.8 MFI
same,fluorescence intensity,[9]; [14],17.5 MFI
same,fluorescence intensity,[9]; [15],18 MFI
same,fluorescence intensity,[9]; [16],18 MFI
same,fluorescence intensity,[9]; [17],18.2 MFI
same,fluorescence intensity,[9]; [18],19 MFI
same,fluorescence intensity,[9]; [19],29.5 MFI
same,fluorescence intensity,[9]; [20],66 MFI
same,fluorescence intensity,[10]; [13],27.5 MFI
same,fluorescence intensity,[10]; [14],28.5 MFI
same,fluorescence intensity,[10]; [15],28.2 MFI
same,fluorescence intensity,[10]; [16],29.2 MFI
same,fluorescence intensity,[10]; [17],28 MFI
same,fluorescence intensity,[10]; [18],32 MFI
same,fluorescence intensity,[10]; [19],46 MFI
same,fluorescence intensity,[10]; [20],83.8 MFI
same,fluorescence intensity,[11]; [13],18 MFI
same,fluorescence intensity,[11]; [14],17 MFI
same,fluorescence intensity,[11]; [15],17.8 MFI
same,fluorescence intensity,[11]; [16],19 MFI
same,fluorescence intensity,[11]; [17],19 MFI
same,fluorescence intensity,[11]; [18],26 MFI
same,fluorescence intensity,[11]; [19],134 MFI
same,fluorescence intensity,[11]; [20],954 MFI
same,fluorescence intensity,[12]; [13],18.5 MFI
same,fluorescence intensity,[12]; [14],17.5 MFI

# No new results follow: entries from further up.
binder,measurement,setting,value
3S41.2 (protein) chain 1: EVQLVESGGGLVQPGGSLRLSCATSGFTFRNYWMYWFRQAPGKGLDWVSSISDSSSNTFYSDSVKGRFTISRDNAKNTLYLQMNSLRAEDTAVYYCARRPIAAATGVYWYFDLWGPGTPITVSS chain 2: QAALTQPPSMSGSPGQSVTISCTGTSSDIGGYNRVSWYQQYPGKAPKLMIYEVSKRPSGVSDRFSGSKSGNTAALTISGLQAADEADYYCSSYAGSYTFVLFGGGTRLTVL,fluorescence intensity,[4]; [18],29 MFI
same,fluorescence intensity,[4]; [19],31.2 MFI
same,fluorescence intensity,[4]; [20],43 MFI
same,fluorescence intensity,[5]; [13],30.2 MFI
same,fluorescence intensity,[5]; [14],30.5 MFI
same,fluorescence intensity,[5]; [15],30 MFI
same,fluorescence intensity,[5]; [16],28.2 MFI
same,fluorescence intensity,[5]; [17],30.5 MFI
same,fluorescence intensity,[5]; [18],31.5 MFI
same,fluorescence intensity,[5]; [19],45.2 MFI
same,fluorescence intensity,[5]; [20],139 MFI
same,fluorescence intensity,[6]; [13],15.5 MFI
same,fluorescence intensity,[6]; [14],15.5 MFI
same,fluorescence intensity,[6]; [15],18.5 MFI
same,fluorescence intensity,[6]; [16],15.5 MFI
same,fluorescence intensity,[6]; [17],17 MFI
same,fluorescence intensity,[6]; [18],19 MFI
same,fluorescence intensity,[6]; [19],41 MFI
same,fluorescence intensity,[6]; [20],222 MFI

# Source: the supplement of paper PMC11438910
